# Values quoted from earlier work, collected in patent publication US20250332159A1, “REACTIVE OXYGEN SPECIES MODULATION THROUGH BINDING OF LIGANDS AT THE NQ-BINDING SITE OF THE RESPIRATORY COMPLEX III” (University of Health Sciences & Pharmacy in St. Louis, priority 2024, published 2025).
# Tested on: MCF7 cells
# Conditions: read-out: IC50 of positive controls; MCF7, literature references given (Seeger et al., 2004; Fang et al., 2014); cited from earlier work
smiles,measurement,value
CC/C(=C(\c1ccccc1)c1ccc(OCCN(C)C)cc1)c1ccccc1 [tamoxifen],IC50,~22.1 µM
